PubChem BioAssay AID1671195 – Yale University – 2021

- Purpose: 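Genes whose knockdown alters LDL uptake in liver cancer cells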 (primary screen)
- Cells: human Huh7 hepatoma cells
- Knock-down reagent: siRNA pool against human genes, 18 nM
- Duration: about 2 to 2.5 days of knockdown, then 8 h LDL uptake
- Treatment: DiI-labelled LDL at 30 µg/ml for 8 h, in lipoprotein-deficient serum medium
- Read-out: 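Fluorescent LDL signal imaged in cells, scaled to the plate median, robust z-score for each replicate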
- Direction: robust z-score: higher = more LDL uptake after knockdown
- Call rule: 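a gene counts as active if at least two replicate z-scores exceed ±2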
The whole screen tested about 22,000 reagents; below is a random part of them. About 1,510 of all reagents (6.9%) count as active. 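Active includes knockdowns raising or lowering LDL uptake; positive z-scores mean more uptake, negative mean less.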 Reagents against one gene are numbered here.

AGPAT3 (GeneID 56894) → robust z-score, replicate 1: 0.397; robust z-score, replicate 2: 1.59; robust z-score, replicate 3: 2.66; Call: inactive
LINC01102 (GeneID 150568) → robust z-score, replicate 1: -0.0961; robust z-score, replicate 2: -0.913; robust z-score, replicate 3: 0.133; Call: inactive
ATRAID (GeneID 51374) → robust z-score, replicate 1: 0.832; robust z-score, replicate 2: 0.323; robust z-score, replicate 3: 0.175; Call: inactive
YIF1B (GeneID 90522) #1 → robust z-score, replicate 1: -2.37; robust z-score, replicate 2: -2.55; robust z-score, replicate 3: -2.56; Call: active
YIF1B (GeneID 90522) #2 → robust z-score, replicate 1: 1.65; robust z-score, replicate 2: 0.524; robust z-score, replicate 3: 0.985; Call: inactive
TMEM14C (GeneID 51522) → robust z-score, replicate 1: 0.356; robust z-score, replicate 2: 0.988; robust z-score, replicate 3: 1.35; Call: inactive
SPATA12 (GeneID 353324) → robust z-score, replicate 1: -1.89; robust z-score, replicate 2: -1.43; robust z-score, replicate 3: -1.07; Call: inactive
IL12B-AS1 (GeneID 285626) → robust z-score, replicate 1: -0.543; robust z-score, replicate 2: -1.06; robust z-score, replicate 3: -0.883; Call: inactive

Laid out differently: results already given.
SPATA12 (GeneID 353324)
- robust z-score, replicate 1: -1.89
- robust z-score, replicate 2: -1.43
- robust z-score, replicate 3: -1.07
- Call: inactive

IL12B-AS1 (GeneID 285626)
- robust z-score, replicate 1: -0.543
- robust z-score, replicate 2: -1.06
- robust z-score, replicate 3: -0.883
- Call: inactive

Next results follow.
FBN3 (GeneID 84467) → robust z-score, replicate 1: 1.89; robust z-score, replicate 2: -0.213; robust z-score, replicate 3: 0.722; Call: inactive
AFDN (GeneID 4301) → robust z-score, replicate 1: 0.955; robust z-score, replicate 2: -0.0736; robust z-score, replicate 3: 0.623; Call: inactive
LGMN (GeneID 5641) → robust z-score, replicate 1: -1.59; robust z-score, replicate 2: -1.61; robust z-score, replicate 3: -1.58; Call: inactive
SERPINB8 (GeneID 5271) → robust z-score, replicate 1: -0.698; robust z-score, replicate 2: -0.692; robust z-score, replicate 3: 1.09; Call: inactive
